The species entered for the test is Rattus norvegicus. Description: Inhibition constant on radiolabeled [125I]FIDA1 binding to rat striatal membranes. Set-up: species or system Striatum, Membrane. In outline: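 Rat striatal membrane homogenate (40–60 μg protein) incubated with 125I-labeled ligand ± competitors in 0.2 mL assay buffer, 15 min at 37 °C with stirring. Filtered on protamine-pretreated (0.2%) GF/B filters, washed with cold 50 mM Tris-HCl pH 7.4, gamma-counted. Nonspecific binding defined with 10 μM (+)-butaclamol. Scatchard and competition data fitted by iterative nonlinear least squares.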

Molecules are shown by their SMILES.

For `CC(C)NCC(O)COc1cccc2ccccc12` (racemic) [PROPRANOLOL], the Ki – broadly, the dissociation constant of the complex between target and ligand, obtained from inhibition or displacement – is over 10 µM.
